These are yes or no findings as the source states them, for the method shown. In cells and extracts the contact can be indirect. Some entries that bind do so weakly or less than the wild type. For part of these data: Where a sequence is shown, tags or fusion partners need not be part of it. Each block holds one molecule with its values, some of them ahead of it.
How the values were obtained:
[1] = molecular target: T1, MYC-ATG7 (from pMyc-ATG7) (human) (UniProt O95352); test: co-IP; competition: pMyc-ATG7 co-transfected with 1 μg p3xFlag-ATG3 or p3xFlag-TUBGCP4 and increasing amounts (0, 0.3, 0.6, 1.2 μg) of the other; anti-MYC precipitation, anti-FLAG blot
T1 sequence: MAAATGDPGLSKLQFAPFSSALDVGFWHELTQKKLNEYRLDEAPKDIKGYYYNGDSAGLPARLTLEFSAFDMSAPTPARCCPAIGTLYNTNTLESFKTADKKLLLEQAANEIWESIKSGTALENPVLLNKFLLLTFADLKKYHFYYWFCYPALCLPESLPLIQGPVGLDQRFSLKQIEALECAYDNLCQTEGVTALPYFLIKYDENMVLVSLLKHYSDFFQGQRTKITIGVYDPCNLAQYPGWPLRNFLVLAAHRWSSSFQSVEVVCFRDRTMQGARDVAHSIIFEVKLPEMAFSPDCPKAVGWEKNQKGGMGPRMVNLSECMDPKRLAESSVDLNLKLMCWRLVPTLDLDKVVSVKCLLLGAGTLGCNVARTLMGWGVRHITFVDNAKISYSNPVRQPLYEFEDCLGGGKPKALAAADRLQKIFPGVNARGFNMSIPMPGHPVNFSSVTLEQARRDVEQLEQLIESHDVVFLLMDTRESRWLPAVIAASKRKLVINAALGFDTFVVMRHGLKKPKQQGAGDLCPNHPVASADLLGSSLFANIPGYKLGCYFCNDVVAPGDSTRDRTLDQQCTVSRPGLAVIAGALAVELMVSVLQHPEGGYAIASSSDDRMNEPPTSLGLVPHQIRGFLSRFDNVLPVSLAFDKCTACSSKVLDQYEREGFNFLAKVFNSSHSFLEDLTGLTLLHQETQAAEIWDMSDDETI

By UniProt entry, the sequences of proteins in these tests, tags left out.
UniProt Q9D4F8: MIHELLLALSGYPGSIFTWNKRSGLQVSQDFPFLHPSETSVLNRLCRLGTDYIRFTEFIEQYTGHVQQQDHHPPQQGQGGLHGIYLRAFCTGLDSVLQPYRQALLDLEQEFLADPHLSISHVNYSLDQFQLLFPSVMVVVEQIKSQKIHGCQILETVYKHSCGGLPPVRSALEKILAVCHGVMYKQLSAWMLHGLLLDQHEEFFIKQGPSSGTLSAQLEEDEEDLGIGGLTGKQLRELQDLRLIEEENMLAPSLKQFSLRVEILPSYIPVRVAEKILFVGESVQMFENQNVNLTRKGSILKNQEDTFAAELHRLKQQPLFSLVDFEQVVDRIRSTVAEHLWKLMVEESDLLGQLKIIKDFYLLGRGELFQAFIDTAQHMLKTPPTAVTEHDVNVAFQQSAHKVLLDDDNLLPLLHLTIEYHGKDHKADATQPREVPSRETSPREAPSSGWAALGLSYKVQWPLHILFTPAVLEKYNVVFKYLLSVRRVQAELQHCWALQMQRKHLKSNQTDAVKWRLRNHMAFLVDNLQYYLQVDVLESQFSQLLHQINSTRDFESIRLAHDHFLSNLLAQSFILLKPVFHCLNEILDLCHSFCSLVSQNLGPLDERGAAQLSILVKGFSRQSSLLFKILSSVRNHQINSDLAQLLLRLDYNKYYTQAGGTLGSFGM
UniProt Q921G8: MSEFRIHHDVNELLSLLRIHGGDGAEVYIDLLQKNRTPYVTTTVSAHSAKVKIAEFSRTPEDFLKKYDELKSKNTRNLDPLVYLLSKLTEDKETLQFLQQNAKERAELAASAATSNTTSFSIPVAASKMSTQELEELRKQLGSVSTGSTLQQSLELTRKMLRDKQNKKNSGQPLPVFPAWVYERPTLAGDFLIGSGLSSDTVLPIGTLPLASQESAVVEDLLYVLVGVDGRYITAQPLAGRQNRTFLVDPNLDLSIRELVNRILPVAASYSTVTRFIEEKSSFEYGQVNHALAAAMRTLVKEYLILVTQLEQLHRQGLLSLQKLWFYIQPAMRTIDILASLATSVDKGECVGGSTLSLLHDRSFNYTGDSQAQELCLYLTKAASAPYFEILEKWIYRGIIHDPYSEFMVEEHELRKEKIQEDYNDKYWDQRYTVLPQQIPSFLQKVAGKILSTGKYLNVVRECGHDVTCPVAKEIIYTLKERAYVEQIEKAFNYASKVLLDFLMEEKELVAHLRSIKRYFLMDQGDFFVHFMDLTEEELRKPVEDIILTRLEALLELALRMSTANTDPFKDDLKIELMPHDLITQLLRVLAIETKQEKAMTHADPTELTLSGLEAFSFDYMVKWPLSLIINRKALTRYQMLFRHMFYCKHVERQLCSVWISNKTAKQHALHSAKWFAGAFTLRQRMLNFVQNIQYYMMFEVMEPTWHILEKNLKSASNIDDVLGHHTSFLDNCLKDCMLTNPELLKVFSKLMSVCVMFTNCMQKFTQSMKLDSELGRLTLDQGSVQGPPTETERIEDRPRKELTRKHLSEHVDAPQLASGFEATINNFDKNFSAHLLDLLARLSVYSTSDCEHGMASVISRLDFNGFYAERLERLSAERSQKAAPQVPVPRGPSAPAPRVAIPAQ
UniProt Q8BKN5: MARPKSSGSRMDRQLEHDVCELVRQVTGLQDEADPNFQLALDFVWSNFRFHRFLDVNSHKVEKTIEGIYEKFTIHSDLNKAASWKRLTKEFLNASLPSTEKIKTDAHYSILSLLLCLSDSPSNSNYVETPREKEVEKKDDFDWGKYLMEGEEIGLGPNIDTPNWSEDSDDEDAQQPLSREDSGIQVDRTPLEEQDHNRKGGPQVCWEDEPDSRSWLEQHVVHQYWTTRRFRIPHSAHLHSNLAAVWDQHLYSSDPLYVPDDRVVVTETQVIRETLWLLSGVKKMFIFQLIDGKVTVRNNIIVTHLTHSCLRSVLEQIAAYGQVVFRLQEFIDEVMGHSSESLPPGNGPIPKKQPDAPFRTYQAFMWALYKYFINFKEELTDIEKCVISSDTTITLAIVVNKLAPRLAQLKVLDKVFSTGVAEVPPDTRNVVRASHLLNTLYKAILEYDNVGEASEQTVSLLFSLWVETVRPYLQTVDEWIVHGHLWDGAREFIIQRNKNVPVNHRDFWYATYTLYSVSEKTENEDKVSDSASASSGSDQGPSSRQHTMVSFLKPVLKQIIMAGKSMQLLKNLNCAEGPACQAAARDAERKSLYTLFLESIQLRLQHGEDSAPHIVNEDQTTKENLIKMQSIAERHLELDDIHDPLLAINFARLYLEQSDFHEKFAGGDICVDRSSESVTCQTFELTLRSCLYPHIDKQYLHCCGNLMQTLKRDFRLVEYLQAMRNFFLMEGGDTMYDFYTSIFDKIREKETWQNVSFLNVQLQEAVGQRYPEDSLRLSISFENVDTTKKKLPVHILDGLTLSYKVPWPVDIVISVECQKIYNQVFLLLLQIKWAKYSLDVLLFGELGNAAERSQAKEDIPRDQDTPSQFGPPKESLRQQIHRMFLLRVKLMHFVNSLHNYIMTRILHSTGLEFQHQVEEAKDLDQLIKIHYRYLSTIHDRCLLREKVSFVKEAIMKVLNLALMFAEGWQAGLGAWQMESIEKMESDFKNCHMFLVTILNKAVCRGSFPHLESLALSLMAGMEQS

[2] = molecular target: T1, MYC-ATG7 (from pMyc-ATG7) (human); test: co-IP; 293T cells co-transfected with Myc- and 3xFlag-tagged constructs, 48 h; HEPES buffer with 150 mM NaCl, 0.5% NP-40; anti-MYC or anti-FLAG with Protein G agarose overnight at 4 °C
[3] = molecular target: GCP4 (gamma-tubulin complex protein 4, encoded by Tubgcp4) (mouse (endogenous in retina)) (UniProt Q9D4F8); test: co-sedimentation; retina extracts of wild-type and Tubgcp4+/- mice on a 5-40% continuous sucrose gradient in HEPES buffer, 4 h at 314,000 x g, 4 °C; 14 fractions analysed by western blotting
[4] = molecular target: GCP4 (gamma-tubulin complex protein 4, encoded by Tubgcp4) (mouse (endogenous in retina)) (UniProt Q9D4F8); test: co-IP; endogenous proteins in mouse retina lysates (wild-type and Tubgcp4+/-); HEPES buffer with 150 mM NaCl, 0.5% NP-40; anti-GCP4 or anti-ATG7 with Protein G agarose overnight at 4 °C; control IgG
[5] = molecular target: T2, ATG7 (mouse (endogenous in retina)) (UniProt Q9D906); test: as above
T2 sequence: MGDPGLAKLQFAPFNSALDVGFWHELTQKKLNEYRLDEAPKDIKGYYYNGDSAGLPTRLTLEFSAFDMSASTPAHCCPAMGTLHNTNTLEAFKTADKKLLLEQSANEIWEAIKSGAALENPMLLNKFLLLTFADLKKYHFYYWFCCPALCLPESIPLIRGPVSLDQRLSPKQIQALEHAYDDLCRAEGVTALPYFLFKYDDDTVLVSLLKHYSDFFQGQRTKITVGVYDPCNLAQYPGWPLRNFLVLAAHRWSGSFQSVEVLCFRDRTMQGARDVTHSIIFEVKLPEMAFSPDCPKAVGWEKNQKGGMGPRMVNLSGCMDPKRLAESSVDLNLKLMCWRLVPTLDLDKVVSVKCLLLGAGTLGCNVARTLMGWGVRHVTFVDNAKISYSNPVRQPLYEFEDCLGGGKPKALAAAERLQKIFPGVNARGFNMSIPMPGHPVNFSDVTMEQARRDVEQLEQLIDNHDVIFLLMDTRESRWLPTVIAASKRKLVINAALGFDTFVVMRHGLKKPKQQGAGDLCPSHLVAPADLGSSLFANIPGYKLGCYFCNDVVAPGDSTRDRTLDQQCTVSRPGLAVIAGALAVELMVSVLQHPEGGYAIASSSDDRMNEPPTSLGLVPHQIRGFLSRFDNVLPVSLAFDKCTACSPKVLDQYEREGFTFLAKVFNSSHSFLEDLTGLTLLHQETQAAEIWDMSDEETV

[6] = molecular target: T3, GST-ATG7 (human) (UniProt O95352); test: pull-down; GST fusions from E. coli supernatants (10 μg) on glutathione-agarose beads, washed with HEPES buffer, incubated with 10 μg supernatant of His-GCP4 overnight at 4 °C; blot with anti-GCP4; only the target purified
T3 sequence: T1 sequence

[7] = molecular target: FLAG-GCP4 (from p3xFlag-TUBGCP4 / FLAG-Tubgcp4) (mouse) (UniProt Q9D4F8); test: co-IP; 293T cells co-transfected with Myc- and 3xFlag-tagged constructs, 48 h; HEPES buffer with 150 mM NaCl, 0.5% NP-40; anti-MYC or anti-FLAG with Protein G agarose overnight at 4 °C

- binding [1]: binds
Molecule: FLAG-ATG3 (from p3xFlag-ATG3) (from UniProt Q9NT62-1 1-314)

- binding [2]: binds
- binding [1]: binds
Molecule: FLAG-GCP4 (from p3xFlag-TUBGCP4 / FLAG-Tubgcp4) (from UniProt Q9D4F8 1-667)

- binding [3]: binds
- binding [4]: binds
Molecule: GCP2 (from UniProt Q921G8 1-905)

- binding [5]: binds
Molecule: GCP4 (gamma-tubulin complex protein 4, encoded by Tubgcp4) (from UniProt Q9D4F8 1-667)

- binding [4]: binds
Molecule: GCP5 (from UniProt Q8BKN5 1-1024)

- binding [6]: binds
Molecule: His-GCP4 (from UniProt Q9D4F8 1-667)

- binding [7]: binds
B1: MYC-ATG7 (from pMyc-ATG7) (protein, UniProt O95352-1 1-703)
chain: T1 sequence

— article PMC7206048
